For at least one compound, name, drawing or mass did not settle the structure.
Tested on: ICR mice
Assay: Brain protecting effect: potassium cyanide (KCN)-induced anoxia method
Assay type: in vivo

SMILES	extension of survival time (KCN-induced anoxia) (1 mg/kg i.p.)	extension of survival time (KCN-induced anoxia) (30 mg/kg i.p.)
CCCCC#Cc1nc(N)c2ncn([C@@H]3O[C@H](CO)[C@@H](O)[C@H]3O)c2n1 [Compound 2, 2-hexynyladenosine]	significant extension effects	–
CCCCCCCCCCCCCCC#Cc1nc(N)c2ncn([C@@H]3O[C@H](CO)[C@@H](O)[C@H]3O)c2n1 [Compound 12, 2-hexadecynyladenosine]	–	significant extension effects

— patent publication US5270304A, “Therapeutic 2-alkynyl adenosine agent for ischemic diseases of the heart or brain” (priority 1988, dated 1993)
